# From patent US10130674B2, “Modified peptide that reduces pain in peripheral neuropathy” (Creative Bio-Peptides, priority 2010, dated 2018)
# At least one peptide structure holds a part that was inferred or is arguable (an end, a ring closure or a residue).
# Molecular target: T1, CCR2 (Homo sapiens, UniProt P41597)
# T1 construct: endogenous in cells; host or cells: primary human monocytes from healthy adult donors
# T1 sequence (P41597 1-360 isoform P41597-2): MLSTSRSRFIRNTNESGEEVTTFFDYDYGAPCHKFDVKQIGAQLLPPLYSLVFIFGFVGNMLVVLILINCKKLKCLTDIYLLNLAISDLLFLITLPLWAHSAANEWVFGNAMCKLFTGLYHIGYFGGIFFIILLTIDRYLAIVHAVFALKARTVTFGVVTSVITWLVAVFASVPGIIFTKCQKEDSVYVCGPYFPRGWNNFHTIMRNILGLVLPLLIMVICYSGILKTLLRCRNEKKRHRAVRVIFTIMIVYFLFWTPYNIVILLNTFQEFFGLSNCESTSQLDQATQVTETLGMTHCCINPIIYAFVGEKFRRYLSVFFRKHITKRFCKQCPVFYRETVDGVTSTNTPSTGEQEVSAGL
# Format: cell-based
# Settings: read-out: IC50 for inhibition of MCP-1 chemotaxis (CCR2)
smiles,measurement,value
C[C@H](O)[C@@H](N)C(=O)N[C@@H](C(=O)N[C@H](CC(N)=O)C(=O)N[C@H](Cc1ccc(O)cc1)C(=O)N[C@@H](C(=O)O)[C@H](C)O)[C@H](C)O [All D TTNYT],IC50,4.2 pM
